PubChem BioAssay AID504804 | Drosophila RNAi Screening Center – 2011

Test: 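Fly genes whose loss lessens doxorubicin-driven cell death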 (primary screen)
System: Drosophila Kc cells
Knock-down reagent: long dsRNA against Drosophila genes, 0.5 µg dsRNA per well
Time to read-out: 96 h (48 h knock-down, then 48 h drug)
Treatment: doxorubicin 5 µg/ml for 48 h, added 48 h after dsRNA
Measurement: 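Luminescent ATP counts per replicate, not normalised, reflecting viable cells after 48 h dsRNA knock-down followed by 48 h of 5 µg/ml doxorubicin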
Direction: raw ATP luminescence: higher = more viable cells, protection from doxorubicin
Call rule: 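z-score of 2 or more over plate mean in both duplicates, retained only when retests and separate dsRNAs confirm the protection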
The screen tested about 19,000 reagents; shown is an unselected part of those with a known target gene and a result. In the full data, 47 (0.25%) got an active call. 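Signals are raw, not normalised; exact z-scores behind calls not deposited; actives needed confirmation, so some wells reaching 2 SD are inactive.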 A plus sign joins genes that one reagent is predicted to hit.

| target gene | DRSC id | raw ATP luminescence, replicate 1 | raw ATP luminescence, replicate 2 | call |
| --- | --- | --- | --- | --- |
| sav | DRSC14681 | 89990 | 79530 | inactive |
| sav | DRSC14682 | 71650 | 68730 | inactive |
| CG44014 | DRSC14995 | 80460 | 75080 | inactive |
| ND-B12 | DRSC04060 | 65757 | 67853 | inactive |
| Pect | DRSC02867 | 97717 | 77297 | inactive |
| Pect | DRSC02868 | 44120 | 51847 | inactive |
| S-Lap3 | DRSC10956 | 33007 | 45533 | inactive |
| CG34398 | DRSC01052 | 3.11e5 | 3.15e5 | inactive |
| CG34398 | DRSC02510 | 34753 | 44357 | inactive |
| CG34398 | DRSC02511 | 40223 | 34113 | inactive |
| CG34398 | DRSC03228 | 20143 | 33417 | inactive |
| Prat2 | DRSC09692 | 46993 | 37537 | inactive |
| Mgat3 | DRSC01305 | 2.72e5 | 2.30e5 | inactive |
| CG33494 | DRSC13715 | 2.34e5 | 2.05e5 | inactive |
| cv-d | DRSC16522 | 53483 | 46143 | inactive |
| cv-d | DRSC16524 | 82140 | 79240 | inactive |
| cv-d | DRSC16526 | 96440 | 96750 | inactive |
| axed | DRSC08833 | 1.88e5 | 1.78e5 | inactive |
| axed | DRSC10982 | 82147 | 79047 | inactive |
| fmt | DRSC09717 | 38030 | 37550 | inactive |
| Ir67a | DRSC09897 | 1.13e5 | 83970 | inactive |
| CG31663 | DRSC00078 | 3.13e5 | 3.13e5 | inactive |
| CG31663 | DRSC00389 | 1.04e5 | 74463 | inactive |
| CG31663 | DRSC00390 | 1.60e5 | 1.98e5 | inactive |
| CG7156 | DRSC16207 | 35520 | 45153 | inactive |
| CG31178 | DRSC14590 | 53750 | 53500 | inactive |
| sut2 | DRSC07701 | 67283 | 57493 | inactive |
| ewg | DRSC18773 | 56480 | 46350 | inactive |
| ND-42 | DRSC16754 | 34940 | 29000 | inactive |
| Nepl8 | DRSC02759 | 38420 | 75237 | inactive |
| Eig71Ei | DRSC11156 | 62950 | 63260 | inactive |
| CG14570 | DRSC11731 | 63977 | 61303 | inactive |
| Ir94a | DRSC13538 | 1.53e5 | 2.29e5 | inactive |
| eEF1alpha2 | DRSC14079 | 2.82e5 | 2.74e5 | inactive |
| eEF1alpha2 | DRSC16658 | 39710 | 38960 | inactive |
| CG16953 | DRSC15167 | 59390 | 46370 | inactive |
| RnpS1 | DRSC15154 | 52663 | 29733 | inactive |
| Mtpalpha | DRSC01994 | 80033 | 66403 | inactive |
| bves | DRSC20520 | 3.29e5 | 3.39e5 | inactive |
| bves | DRSC20554 | 3.44e5 | 3.00e5 | inactive |
| bves | DRSC20555 | 3.47e5 | 2.95e5 | inactive |
| Him | DRSC19638 | 3.34e5 | 3.24e5 | inactive |
| MBD-R2 | DRSC14180 | 46700 | 37903 | inactive |
| klar | DRSC08718 | 71653 | 72320 | inactive |
| Cyt-c-p | DRSC03310 | 54533 | 60127 | inactive |
| CG31729 | DRSC02524 | 95107 | 72363 | inactive |
| CG31729 | DRSC02946 | 51230 | 82773 | inactive |
| CG17349 | DRSC02610 | 48683 | 45900 | inactive |
| CSN6 | DRSC16593 | 54720 | 51740 | inactive |
| CG16749 | DRSC15146 | 43813 | 53400 | inactive |
| CG12693 | DRSC17882 | 45770 | 49680 | inactive |
| CG31805 | DRSC01563 | 2.84e5 | 2.49e5 | inactive |
| Shal | DRSC09625 | 72053 | 61057 | inactive |
| Shal | DRSC11283 | 69747 | 72140 | inactive |
| EMC2B + EMC2A | DRSC15241 | 70060 | 50000 | inactive |
| Nf-YA | DRSC10385 | 62633 | 40917 | inactive |
| Pcif1 | DRSC11655 | 25373 | 29760 | inactive |
